Data from paper PMC2263068.
Numbering of substitutions follows the chain as printed. Names may count otherwise. These are yes or no findings as the source states them, for the method shown. For part of these data: Binding seen in cells or lysates may run through a third protein. Some binding calls cover weakened binding; strength is not graded here. For part of these data: Tags and fused reporters may be left off the sequences shown.

Protein sequences, listed by entry. Tags and fused reporters are not part of them. Residues count along the entry.
UniProt O75925: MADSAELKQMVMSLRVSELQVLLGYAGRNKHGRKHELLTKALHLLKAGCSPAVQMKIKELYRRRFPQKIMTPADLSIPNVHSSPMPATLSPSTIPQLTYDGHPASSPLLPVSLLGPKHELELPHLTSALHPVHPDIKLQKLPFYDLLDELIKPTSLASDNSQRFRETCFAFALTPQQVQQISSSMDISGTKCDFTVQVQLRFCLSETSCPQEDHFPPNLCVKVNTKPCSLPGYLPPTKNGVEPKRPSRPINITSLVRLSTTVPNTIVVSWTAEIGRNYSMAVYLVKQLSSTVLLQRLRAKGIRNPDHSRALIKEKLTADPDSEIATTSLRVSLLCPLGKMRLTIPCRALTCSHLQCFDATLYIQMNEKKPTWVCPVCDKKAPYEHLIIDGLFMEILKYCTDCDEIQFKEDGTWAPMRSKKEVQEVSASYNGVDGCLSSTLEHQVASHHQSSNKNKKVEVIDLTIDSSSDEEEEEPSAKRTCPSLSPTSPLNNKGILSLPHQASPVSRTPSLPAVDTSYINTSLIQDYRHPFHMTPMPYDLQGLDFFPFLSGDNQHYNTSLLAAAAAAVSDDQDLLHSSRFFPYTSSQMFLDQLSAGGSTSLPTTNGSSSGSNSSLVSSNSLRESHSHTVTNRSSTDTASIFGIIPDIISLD
UniProt Q61026: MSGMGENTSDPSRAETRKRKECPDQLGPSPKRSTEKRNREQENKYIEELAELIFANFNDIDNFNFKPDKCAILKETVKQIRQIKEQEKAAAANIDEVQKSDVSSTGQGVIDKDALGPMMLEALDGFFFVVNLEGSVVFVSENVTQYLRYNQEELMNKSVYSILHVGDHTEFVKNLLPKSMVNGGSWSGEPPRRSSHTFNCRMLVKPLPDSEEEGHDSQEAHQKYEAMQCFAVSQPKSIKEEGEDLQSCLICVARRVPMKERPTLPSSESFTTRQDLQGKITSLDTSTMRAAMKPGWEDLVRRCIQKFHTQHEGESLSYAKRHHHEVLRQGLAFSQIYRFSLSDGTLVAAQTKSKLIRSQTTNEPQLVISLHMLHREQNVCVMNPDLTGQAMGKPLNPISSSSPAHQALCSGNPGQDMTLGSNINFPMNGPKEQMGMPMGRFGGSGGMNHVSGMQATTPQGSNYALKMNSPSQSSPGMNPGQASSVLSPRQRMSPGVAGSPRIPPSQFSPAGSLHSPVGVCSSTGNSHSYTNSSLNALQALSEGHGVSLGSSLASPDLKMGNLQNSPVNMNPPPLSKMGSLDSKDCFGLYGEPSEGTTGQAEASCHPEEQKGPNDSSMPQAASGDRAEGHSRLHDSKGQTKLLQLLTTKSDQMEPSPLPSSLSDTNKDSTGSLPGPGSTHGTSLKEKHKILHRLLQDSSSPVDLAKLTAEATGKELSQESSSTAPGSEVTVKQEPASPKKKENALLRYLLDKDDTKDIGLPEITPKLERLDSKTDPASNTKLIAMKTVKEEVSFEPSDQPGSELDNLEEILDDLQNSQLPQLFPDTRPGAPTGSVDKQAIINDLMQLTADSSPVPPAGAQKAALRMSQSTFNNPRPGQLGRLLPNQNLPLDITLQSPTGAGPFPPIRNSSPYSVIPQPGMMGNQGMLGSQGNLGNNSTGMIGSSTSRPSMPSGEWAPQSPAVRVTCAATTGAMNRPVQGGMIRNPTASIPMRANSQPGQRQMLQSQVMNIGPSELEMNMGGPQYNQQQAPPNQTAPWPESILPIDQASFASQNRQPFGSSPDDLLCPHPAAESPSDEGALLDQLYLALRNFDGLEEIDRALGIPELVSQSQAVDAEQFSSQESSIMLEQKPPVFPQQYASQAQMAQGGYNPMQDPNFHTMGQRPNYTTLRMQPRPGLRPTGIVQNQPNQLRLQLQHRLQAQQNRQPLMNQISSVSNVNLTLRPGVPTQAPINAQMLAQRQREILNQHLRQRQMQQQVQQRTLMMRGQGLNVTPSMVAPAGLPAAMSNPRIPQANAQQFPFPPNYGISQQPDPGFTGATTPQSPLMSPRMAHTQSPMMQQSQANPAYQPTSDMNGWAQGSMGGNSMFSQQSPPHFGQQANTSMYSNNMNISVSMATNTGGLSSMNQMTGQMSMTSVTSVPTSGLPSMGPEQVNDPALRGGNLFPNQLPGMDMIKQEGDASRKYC
UniProt P35222: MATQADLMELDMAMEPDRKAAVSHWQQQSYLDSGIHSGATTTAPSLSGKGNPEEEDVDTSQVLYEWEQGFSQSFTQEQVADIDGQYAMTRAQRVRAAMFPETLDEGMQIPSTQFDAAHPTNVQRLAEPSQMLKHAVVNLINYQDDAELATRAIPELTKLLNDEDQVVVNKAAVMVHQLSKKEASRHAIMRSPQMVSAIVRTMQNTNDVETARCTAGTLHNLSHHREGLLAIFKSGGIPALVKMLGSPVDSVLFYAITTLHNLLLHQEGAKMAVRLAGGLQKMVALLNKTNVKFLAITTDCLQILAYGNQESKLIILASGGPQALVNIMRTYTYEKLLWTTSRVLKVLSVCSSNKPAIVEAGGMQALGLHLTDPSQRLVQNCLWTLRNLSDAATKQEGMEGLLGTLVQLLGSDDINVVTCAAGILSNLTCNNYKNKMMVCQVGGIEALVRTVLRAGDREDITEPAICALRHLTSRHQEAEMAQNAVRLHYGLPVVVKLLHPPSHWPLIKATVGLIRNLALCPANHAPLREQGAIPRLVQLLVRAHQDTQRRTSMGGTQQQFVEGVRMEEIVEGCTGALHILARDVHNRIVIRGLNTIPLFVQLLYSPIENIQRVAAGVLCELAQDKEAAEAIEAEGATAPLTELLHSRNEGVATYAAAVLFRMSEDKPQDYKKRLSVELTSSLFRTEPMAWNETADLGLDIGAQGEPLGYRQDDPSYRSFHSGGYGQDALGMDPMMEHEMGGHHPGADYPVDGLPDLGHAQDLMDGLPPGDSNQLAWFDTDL
UniProt Q09472, residues 566-645: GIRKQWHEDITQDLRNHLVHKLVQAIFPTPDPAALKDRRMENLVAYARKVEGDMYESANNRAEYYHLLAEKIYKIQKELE

What was measured:
[1] = molecular target: protein inhibitor of activated STAT 1 (PIAS1) (UniProt O75925); experiment: co-IP; in vivo; data not shown
[2] = molecular target: glucocorticoid receptor interacting protein 1 (GRIP1) (UniProt Q61026); experiment: two-hybrid; mammalian two-hybrid; data not shown
[3] = molecular target: coiled-coil coactivator (CoCoA), wild type (UniProt Q8CGU1); experiment: two-hybrid; mammalian two-hybrid; data not shown
[4] = molecular target: glucocorticoid receptor interacting protein 1 (GRIP1) (UniProt Q61026); experiment: co-IP; data not shown
[5] = molecular target: coiled-coil coactivator (CoCoA), wild type (UniProt Q8CGU1); experiment: co-IP; data not shown
[6] = molecular target: K29R mutant of CoCoA (UniProt Q8CGU1); experiment: two-hybrid; mammalian two-hybrid; data not shown
[7] = molecular target: K29R mutant of CoCoA (UniProt Q8CGU1); experiment: co-IP; data not shown
[8] = molecular target: GST-β-catenin (UniProt P35222); experiment: pull-down; GST fusion protein bound to glutathione-Sepharose, incubated with in vitro-translated protein; bound proteins eluted and analysed by immunoblot with anti-HA antibody or autoradiography; only the target purified
[9] = molecular target: T1, GST-CoCoA(470–691) fusion protein (UniProt Q8CGU1); experiment: as above
T1 sequence: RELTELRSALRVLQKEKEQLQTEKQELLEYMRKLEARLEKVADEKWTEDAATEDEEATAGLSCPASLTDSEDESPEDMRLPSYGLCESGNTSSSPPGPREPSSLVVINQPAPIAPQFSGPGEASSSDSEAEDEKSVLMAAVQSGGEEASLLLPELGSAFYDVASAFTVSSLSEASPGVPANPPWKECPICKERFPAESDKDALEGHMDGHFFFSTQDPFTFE

[10] = molecular target: GST-p300 KIX fragment (UniProt Q09472); experiment: as above

Measured: binding

B1: coiled-coil coactivator (CoCoA), wild type (protein, UniProt Q8CGU1 1-691)
chain: MEESSLSRAPSRGGVNFLNVARTYIPNTKVECHYTLPPGTMPSASDWIGIFKVEAACVRDYHTFVWSSVPESTTDGSPTHASVQFQASYLPKPGAQLYQFRYVNRQGRVCGQSPPFQFREPRPMDELVTLEEADGGSDILLVVPKATVLQNQLDESQQERNDLMQLKLQLEDQVTELRSRVQELEAALATARQEHSELTEQYKGLSRSHGELSEERDILSQQQGDHVARILELEDDIQTMSDKVLMKEVELDRVRDTVKALTREQEKLLRQLKEFQADKEQSEAELQTVREENCCLNTELEEAKSRQEEQGAQVQRLKDKLAHMKDTLGQAQQKVAELEPLKEQLRGVQELAASSQQKAALLGEELASAAGARDRTIAELHRSRLEVAEVNGRLAELSLHMKEEKCQWSKERTGLLQSMEAEKDKILKLSAEILRLEKTVQEERTQSHVFKTELAREKDSSLVQLSESKRELTELRSALRVLQKEKEQLQTEKQELLEYMRKLEARLEKVADEKWTEDAATEDEEATAGLSCPASLTDSEDESPEDMRLPSYGLCESGNTSSSPPGPREPSSLVVINQPAPIAPQFSGPGEASSSDSEAEDEKSVLMAAVQSGGEEASLLLPELGSAFYDVASAFTVSSLSEASPGVPANPPWKECPICKERFPAESDKDALEGHMDGHFFFSTQDPFTFE
binds: [1] | [2] | [3] | [4] | [5]

B2: K29R mutant of CoCoA (protein, UniProt Q8CGU1 1-691)
chain: B1 chain with K29R
binds: [6] | [2] | [7] | [4]

B3: HA-tagged CoCoA(1–190) wild type (domain or fragment, UniProt Q8CGU1 1-190)
chain: MEESSLSRAPSRGGVNFLNVARTYIPNTKVECHYTLPPGTMPSASDWIGIFKVEAACVRDYHTFVWSSVPESTTDGSPTHASVQFQASYLPKPGAQLYQFRYVNRQGRVCGQSPPFQFREPRPMDELVTLEEADGGSDILLVVPKATVLQNQLDESQQERNDLMQLKLQLEDQVTELRSRVQELEAALAT
binds: [8] | [9] | [10]

B4: HA-tagged CoCoA(1–190, K29R) (domain or fragment, UniProt Q8CGU1 1-190)
chain: B3 chain with K29R
binds: [8] | [9] | [10]
